No constants are given. Whether binding was seen depends on the method and setting. Binding seen in cells or lysates may run through a third protein. Some binding calls cover weakened binding; strength is not graded here. For some of these results: Tags and fused reporters may be left off the sequences shown.
Experiments:
[1] = target: Hir2 (immunoprecipitated from yeast) (S. cerevisiae) (UniProt P32480); assay: co-IP; Co-IP of Hir1 and Hir2 from yeast followed by immunoblotting for chaperones (Fig 4C); beads and tag not told for this panel
[2] = target: T1, HA-Ste11 (wild type) (S. cerevisiae) (UniProt P23561); assay: co-IP; yeast extract (200 ug) on anti-HA magnetic beads, 4°C, 30 min; 50 mM Na-phosphate pH 8.0, 300 mM NaCl, 0.01% Tween-20; western blot
T1 sequence: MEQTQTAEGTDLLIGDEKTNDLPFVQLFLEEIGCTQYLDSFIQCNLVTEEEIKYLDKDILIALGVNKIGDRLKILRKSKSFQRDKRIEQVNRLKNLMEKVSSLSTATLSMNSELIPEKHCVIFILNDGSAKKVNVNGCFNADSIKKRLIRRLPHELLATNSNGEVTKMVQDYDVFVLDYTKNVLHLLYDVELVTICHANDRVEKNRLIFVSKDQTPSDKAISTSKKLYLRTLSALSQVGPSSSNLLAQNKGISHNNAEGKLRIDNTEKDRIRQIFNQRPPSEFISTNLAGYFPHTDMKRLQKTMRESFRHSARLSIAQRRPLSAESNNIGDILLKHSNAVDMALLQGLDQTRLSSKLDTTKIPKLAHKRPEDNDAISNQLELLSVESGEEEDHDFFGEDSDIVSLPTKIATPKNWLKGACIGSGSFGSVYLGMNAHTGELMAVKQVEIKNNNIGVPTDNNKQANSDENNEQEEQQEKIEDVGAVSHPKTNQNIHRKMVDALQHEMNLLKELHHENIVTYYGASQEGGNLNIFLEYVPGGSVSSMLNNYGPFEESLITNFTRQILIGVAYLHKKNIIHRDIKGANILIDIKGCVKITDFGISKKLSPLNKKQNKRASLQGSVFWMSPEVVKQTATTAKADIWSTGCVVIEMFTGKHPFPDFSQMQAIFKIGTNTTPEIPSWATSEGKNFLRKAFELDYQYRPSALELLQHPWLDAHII

The chains behind the UniProt entries cited, without tags or fusion partners.
UniProt P32480: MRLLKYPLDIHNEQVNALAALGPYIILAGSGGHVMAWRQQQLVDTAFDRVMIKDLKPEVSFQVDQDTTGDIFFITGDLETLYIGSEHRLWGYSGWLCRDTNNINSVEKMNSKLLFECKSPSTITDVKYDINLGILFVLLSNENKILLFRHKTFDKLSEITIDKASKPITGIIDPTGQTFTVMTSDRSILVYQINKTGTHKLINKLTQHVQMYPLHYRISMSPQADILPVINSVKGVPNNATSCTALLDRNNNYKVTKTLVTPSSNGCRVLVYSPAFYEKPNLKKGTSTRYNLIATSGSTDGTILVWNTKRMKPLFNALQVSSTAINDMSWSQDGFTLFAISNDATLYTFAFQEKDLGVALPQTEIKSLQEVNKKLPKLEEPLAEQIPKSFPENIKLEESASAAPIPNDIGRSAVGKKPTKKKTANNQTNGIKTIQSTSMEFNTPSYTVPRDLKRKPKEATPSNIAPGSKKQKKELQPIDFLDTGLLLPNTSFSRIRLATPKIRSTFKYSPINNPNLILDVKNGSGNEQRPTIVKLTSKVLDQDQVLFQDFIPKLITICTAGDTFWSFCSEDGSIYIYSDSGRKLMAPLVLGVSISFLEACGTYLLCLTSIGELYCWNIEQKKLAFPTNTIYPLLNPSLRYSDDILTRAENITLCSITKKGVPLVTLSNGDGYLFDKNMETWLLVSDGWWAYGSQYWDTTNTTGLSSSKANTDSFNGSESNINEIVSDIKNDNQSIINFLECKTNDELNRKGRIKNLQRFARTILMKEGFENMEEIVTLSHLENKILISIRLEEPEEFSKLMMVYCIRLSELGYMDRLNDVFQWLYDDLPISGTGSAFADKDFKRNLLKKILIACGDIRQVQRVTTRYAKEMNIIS
UniProt P10591: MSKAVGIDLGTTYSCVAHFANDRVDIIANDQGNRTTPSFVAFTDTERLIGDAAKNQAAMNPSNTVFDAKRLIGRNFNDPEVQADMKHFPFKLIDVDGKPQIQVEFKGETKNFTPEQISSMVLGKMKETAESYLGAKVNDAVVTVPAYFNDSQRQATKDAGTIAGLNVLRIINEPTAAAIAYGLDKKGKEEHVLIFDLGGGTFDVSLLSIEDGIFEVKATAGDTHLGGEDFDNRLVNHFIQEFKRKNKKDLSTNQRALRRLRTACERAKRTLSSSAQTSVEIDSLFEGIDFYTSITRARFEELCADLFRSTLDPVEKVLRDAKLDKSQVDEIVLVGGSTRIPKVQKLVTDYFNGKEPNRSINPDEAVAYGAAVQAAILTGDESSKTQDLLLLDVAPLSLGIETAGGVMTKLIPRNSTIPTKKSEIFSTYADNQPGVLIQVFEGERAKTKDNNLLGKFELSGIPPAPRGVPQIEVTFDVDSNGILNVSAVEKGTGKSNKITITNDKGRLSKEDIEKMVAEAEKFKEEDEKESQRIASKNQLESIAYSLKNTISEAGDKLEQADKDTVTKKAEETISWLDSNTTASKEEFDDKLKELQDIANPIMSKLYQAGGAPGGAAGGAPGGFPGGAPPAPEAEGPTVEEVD
UniProt P25491: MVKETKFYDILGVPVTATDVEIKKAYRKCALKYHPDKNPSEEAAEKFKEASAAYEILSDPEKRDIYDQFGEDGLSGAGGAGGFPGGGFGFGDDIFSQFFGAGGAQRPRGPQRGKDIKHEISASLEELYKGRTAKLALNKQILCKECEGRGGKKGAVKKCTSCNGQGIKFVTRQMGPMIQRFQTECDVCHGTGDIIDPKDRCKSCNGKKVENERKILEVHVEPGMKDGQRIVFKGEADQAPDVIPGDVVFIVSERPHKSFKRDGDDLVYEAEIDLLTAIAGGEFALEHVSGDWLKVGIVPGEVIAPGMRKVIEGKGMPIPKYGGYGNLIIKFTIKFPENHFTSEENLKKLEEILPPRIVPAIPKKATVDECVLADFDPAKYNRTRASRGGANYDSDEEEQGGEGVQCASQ

[3] = target: T2, Pcl7 with an HA epitope tag at the carboxy terminus (S. cerevisiae) (UniProt P40186); assay: as above
T2 sequence: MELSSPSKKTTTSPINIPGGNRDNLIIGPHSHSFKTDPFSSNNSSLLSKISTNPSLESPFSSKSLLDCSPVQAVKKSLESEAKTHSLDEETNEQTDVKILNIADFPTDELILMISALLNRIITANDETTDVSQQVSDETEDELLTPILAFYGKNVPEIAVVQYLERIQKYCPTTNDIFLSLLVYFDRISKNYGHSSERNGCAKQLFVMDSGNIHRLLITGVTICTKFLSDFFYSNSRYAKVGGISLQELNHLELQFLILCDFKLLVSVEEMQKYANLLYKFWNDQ

[4] = target: T3, Sse1 with an HA epitope tag at the carboxy terminus (S. cerevisiae) (UniProt P32589); assay: as above
T3 sequence: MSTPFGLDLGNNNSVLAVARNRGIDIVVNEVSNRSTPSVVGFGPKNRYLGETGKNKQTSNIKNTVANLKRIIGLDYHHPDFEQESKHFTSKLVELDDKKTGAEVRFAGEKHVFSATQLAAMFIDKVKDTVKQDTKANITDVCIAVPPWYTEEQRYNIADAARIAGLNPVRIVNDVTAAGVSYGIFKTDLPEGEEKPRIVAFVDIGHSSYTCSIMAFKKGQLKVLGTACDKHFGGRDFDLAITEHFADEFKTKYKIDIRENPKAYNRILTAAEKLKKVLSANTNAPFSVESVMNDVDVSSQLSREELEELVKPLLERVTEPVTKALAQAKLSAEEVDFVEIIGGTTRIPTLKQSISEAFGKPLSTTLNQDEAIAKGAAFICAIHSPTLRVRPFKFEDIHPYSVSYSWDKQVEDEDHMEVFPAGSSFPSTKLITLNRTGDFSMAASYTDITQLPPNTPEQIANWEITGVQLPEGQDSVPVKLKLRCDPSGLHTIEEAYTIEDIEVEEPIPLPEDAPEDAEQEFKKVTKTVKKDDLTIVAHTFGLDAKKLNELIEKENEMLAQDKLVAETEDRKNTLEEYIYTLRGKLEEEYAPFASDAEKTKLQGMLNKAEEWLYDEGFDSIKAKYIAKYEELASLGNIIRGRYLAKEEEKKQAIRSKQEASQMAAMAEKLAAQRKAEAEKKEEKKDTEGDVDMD

[5] = target: T4, Mtw1-FLAG (S. cerevisiae) (UniProt P39731); assay: co-IP; yeast extract (200 ug) on anti-Flag M2 magnetic beads, 4°C overnight; 50 mM Na-phosphate pH 8.0, 300 mM NaCl, 0.01% Tween-20; eluted with 3x FLAG peptide; western blot
T4 sequence: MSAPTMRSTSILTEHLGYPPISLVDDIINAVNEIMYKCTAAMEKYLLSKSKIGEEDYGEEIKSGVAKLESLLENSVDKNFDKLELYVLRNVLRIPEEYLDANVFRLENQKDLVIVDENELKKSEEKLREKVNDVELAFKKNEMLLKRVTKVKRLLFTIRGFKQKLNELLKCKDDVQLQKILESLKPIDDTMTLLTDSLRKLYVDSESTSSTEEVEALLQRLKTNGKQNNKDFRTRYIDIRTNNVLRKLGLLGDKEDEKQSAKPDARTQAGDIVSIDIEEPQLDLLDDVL

Measured: binding

Ssa1 (endogenous, detected with anti-Ssa1) (from UniProt P10591 1-642)
binds: all assays above

Ydj1 co-chaperone (from UniProt P25491 1-409)
binds: all assays above

Reference: paper PMC9629621
